From article PMC7647119
No constants are given. Whether binding was seen depends on the method and setting. Binding calls can cover weak binding; strength is not graded here. Tags and fused reporters may be left off the sequences shown. For some assays here: In cells and extracts the contact can be indirect.

Tests used:
[1] = target: OsTAA1 Transcription Inhibition Factor 1 (OsTIF1), yeast two-hybrid fusion (rice (Oryza sativa)); test: two-hybrid; pGAD7 prey and pGBK7 bait constructs co-transformed into yeast AH109; growth on SD-Leu-Trp-His, SD-Leu-Trp as control; also with IAA, which inhibited the OsAsp1-OsTIF1 interaction
[2] = target: OsTIF1-HA (rice (Oryza sativa)); test: co-IP; OsTIF1-HA co-transformed with OsAsp1-GFP or GFP into rice mesophyll protoplasts, with or without 50 uM IAA for 16 h; OsTIF1-HA as bait, antibody-bound Dynabeads Protein A or G, blot with GFP antibody; interaction depressed with IAA

Binder	binding [1]	binding [2]
Aspartic Protease 1 (OsAsp1), yeast two-hybrid fusion (protein, UniProt Q0IU52 1-410) MTARLALLASLLLLLQLVPPSSAVVLELHGNVYPIGHFFITMNIGDPAKSYFLDIDTGSTLTWLQCDAPCTNCNIVPHVLYKPTPKKLVTCADSLCTDLYTDLGKPKRCGSQKQCDYVIQYVDSSSMGVLVIDRFSLSASNGTNPTTIAFGCGYDQGKKNRNVPIPVDSILGLSRGKVTLLSQLKSQGVITKHVLGHCISSKGGGFLFFGDAQVPTSGVTWTPMNREHKYYSPGHGTLHFDSNSKAISAAPMAVIFDSGATYTYFAAQPYQATLSVVKSTLNSECKFLTEVTEKDRALTVCWKGKDKIVTIDEVKKCFRSLSLEFADGDKKATLEIPPEHYLIISQEGHVCLGILDGSKEHLSLAGTNLIGGITMLDQMVIYDSERSLLGWVNYQCDRIPRSESAITSRL	binds	
OsAsp1-GFP (protein, UniProt Q0IU52 47-410) PAKSYFLDIDTGSTLTWLQCDAPCTNCNIVPHVLYKPTPKKLVTCADSLCTDLYTDLGKPKRCGSQKQCDYVIQYVDSSSMGVLVIDRFSLSASNGTNPTTIAFGCGYDQGKKNRNVPIPVDSILGLSRGKVTLLSQLKSQGVITKHVLGHCISSKGGGFLFFGDAQVPTSGVTWTPMNREHKYYSPGHGTLHFDSNSKAISAAPMAVIFDSGATYTYFAAQPYQATLSVVKSTLNSECKFLTEVTEKDRALTVCWKGKDKIVTIDEVKKCFRSLSLEFADGDKKATLEIPPEHYLIISQEGHVCLGILDGSKEHLSLAGTNLIGGITMLDQMVIYDSERSLLGWVNYQCDRIPRSESAITSRL		binds
